Source: patent US7256192B2, “Aromatic diamide derivatives, chemicals for agricultural or horticultural use and usage thereof” (Nihon Nohyaku Co., Ltd., priority 1999, dated 2007)
Some entries share one result that the patent states for a list of compounds.

Assays:
[1] = system: diamondback moth (Plutella xylostella); assay: Insecticidal effect on diamondback moth (Test Example 1); type: in vivo; settings: 50 ppm; Chinese cabbage seedling with eggs immersed about 30 seconds; six days after the immersion; 25° C.
[2] = system: smaller tea tortrix (Adoxophyes sp.); assay: Insecticidal effect on smaller tea tortrix (Test Example 3); type: in vivo; settings: 50 ppm; tea leaves immersed about 30 seconds; larvae; eight days after the inoculation; 25° C., humidity 70%

## CCN(CC)C(=O)OCC(C)NC(=O)c1cccc(I)c1C(=O)Nc1ccc(C(F)(C(F)(F)F)C(F)(F)F)nc1 (racemic) [2-29]
[1]
  insecticidal activity (mortality rating): B or higher

## CCN(CC)C(=O)OCC(C)NC(=O)c1cccc(I)c1C(=O)Nc1ccc(C(F)(C(F)(F)F)C(F)(F)F)nc1C (racemic) [2-33]
[1]
  insecticidal activity (mortality rating): B or higher

## CCNC(=O)OCC(C)NC(=O)c1c(I)cccc1C(=O)Nc1ccc(OC(C(F)(F)F)C(F)(F)F)nc1C (racemic) [2-47]
[2]
  insecticidal activity (mortality rating): B or higher

## CC(=O)NCC(C)(C)NC(=O)c1c(I)cccc1C(=O)Nc1ccc(C(F)(C(F)(F)F)C(F)(F)F)cc1C [compound 28]
[2]
  insecticidal activity (mortality rating): B or higher

## Cc1cc(C(F)(C(F)(F)F)C(F)(F)F)ccc1NC(=O)c1cccc(I)c1C(=O)NC(C)(C)CNC(=O)C1CC1 [compound 29]
[2]
  insecticidal activity (mortality rating): B or higher

## Cc1cc(C(F)(C(F)(F)F)C(F)(F)F)ccc1NC(=O)c1cccc(I)c1C(=O)NCC1COC(C)(C)O1 (centres unmarked) [compound 51]
[2]
  insecticidal activity (mortality rating): B or higher

## Cc1cc(C(F)(C(F)(F)F)C(F)(F)F)ccc1NC(=O)c1ccccc1C(=O)NC(C)COc1ccccc1 (centres unmarked) [compound 80]
[2]
  insecticidal activity (mortality rating): B or higher

## Cc1cc(C(F)(C(F)(F)F)C(F)(F)F)ccc1NC(=O)c1cccc(I)c1C(=O)NC(C)COC(=O)N(C)C (centres unmarked) [compound 88]
[2]
  insecticidal activity (mortality rating): B or higher

## Cc1cc(C(F)(C(F)(F)F)C(F)(F)F)ccc1NC(=O)c1cccc(I)c1C(=O)NC(C)COC(=O)N1CCCC1 (centres unmarked) [compound 98]
[2]
  insecticidal activity (mortality rating): B or higher

## CCCNC(=O)OCC(C)(C)NC(=O)c1c(I)cccc1C(=O)Nc1ccc(C(F)(C(F)(F)F)C(F)(F)F)cc1C [compound 129]
[2]
  insecticidal activity (mortality rating): B or higher

## CCCNC(=O)OCC(C)(C)NC(=O)c1c(I)cccc1C(=O)Nc1ccc(C(F)(C(F)(F)F)C(F)(F)F)cc1Cl [compound 130]
[2]
  insecticidal activity (mortality rating): B or higher

## C=CCNC(=O)OCC(C)NC(=O)c1c(I)cccc1C(=O)Nc1ccc(C(F)(C(F)(F)F)C(F)(F)F)cc1C (centres unmarked) [compound 142]
[1]
  insecticidal activity (mortality rating): B or higher

## C=CCNC(=O)OCC(C)(C)NC(=O)c1c(I)cccc1C(=O)Nc1ccc(C(F)(C(F)(F)F)C(F)(F)F)cc1C [compound 144]
[1]
  insecticidal activity (mortality rating): B or higher

## Cc1cc(C(F)(C(F)(F)F)C(F)(F)F)ccc1NC(=O)c1cccc(I)c1C(=O)NC(C)COC(=O)NCc1ccc(Cl)cc1 (centres unmarked) [compound 157]
[1]
  insecticidal activity (mortality rating): B or higher

## COc1ccc(CNC(=O)OCC(C)NC(=O)c2c(I)cccc2C(=O)Nc2ccc(C(F)(C(F)(F)F)C(F)(F)F)cc2C)cc1 (centres unmarked) [compound 161]
[1]
  insecticidal activity (mortality rating): B or higher

## Cc1cc(C(F)(C(F)(F)F)C(F)(F)F)ccc1NC(=O)c1cccc(I)c1C(=O)NC(C)COC(=O)NCc1cccnc1 (centres unmarked) [compound 165]
[1]
  insecticidal activity (mortality rating): B or higher

## COCCNC(=O)OCC(C)NC(=O)c1c(I)cccc1C(=O)Nc1ccc(C(F)(C(F)(F)F)C(F)(F)F)cc1C (centres unmarked) [compound 170]
[2]
  insecticidal activity (mortality rating): B or higher

## CSCCCNC(=O)OCC(C)NC(=O)c1c(I)cccc1C(=O)Nc1ccc(C(F)(C(F)(F)F)C(F)(F)F)cc1C (centres unmarked) [compound 182]
[2]
  insecticidal activity (mortality rating): B or higher

## CSCCCNC(=O)OCC(C)(C)NC(=O)c1c(I)cccc1C(=O)Nc1ccc(C(F)(C(F)(F)F)C(F)(F)F)cc1C [compound 184]
[2]
  insecticidal activity (mortality rating): B or higher

## CCNC(=O)OCCC(C)NC(=O)c1c(I)cccc1C(=O)Nc1ccc(C(F)(C(F)(F)F)C(F)(F)F)cc1C (centres unmarked) [compound 194]
[1]
  insecticidal activity (mortality rating): B or higher

## CCNC(=O)OCCCCNC(=O)c1c(I)cccc1C(=O)Nc1ccc(C(F)(C(F)(F)F)C(F)(F)F)cc1C [compound 198]
[1]
  insecticidal activity (mortality rating): B or higher

## Cc1cc(C(F)(C(F)(F)F)C(F)(F)F)ccc1NC(=O)c1cccc(I)c1C(=O)NCCCCOC(=O)NC(C)C [compound 199]
[1]
  insecticidal activity (mortality rating): B or higher

## CCNC(=O)OCCCCCNC(=O)c1ccccc1C(=O)Nc1ccc(C(F)(F)C(F)(F)F)cc1C [compound 204]
[1]
  insecticidal activity (mortality rating): B or higher

## CCNC(=O)OCCCCCNC(=O)c1ccccc1C(=O)Nc1ccc(C(F)(C(F)(F)F)C(F)(F)F)cc1C [compound 205]
[1]
  insecticidal activity (mortality rating): B or higher

## CCNC(=O)OCC(C)NC(=O)c1c(F)cccc1C(=O)Nc1ccc(C(F)(C(F)(F)F)C(F)(F)F)cc1C (centres unmarked) [compound 210]
[2]
  insecticidal activity (mortality rating): B or higher

## CCNC(=O)OCC(C)NC(=O)c1c(Br)cccc1C(=O)Nc1ccc(C(F)(C(F)(F)F)C(F)(F)F)cc1C (centres unmarked) [compound 222]
[1]
  insecticidal activity (mortality rating): B or higher

## CCNC(=O)OCC(C)NC(=O)c1c(Br)cccc1C(=O)Nc1ccc(OC(F)(F)F)cc1C (centres unmarked) [compound 223]
[1]
  insecticidal activity (mortality rating): B or higher

## Cc1cc(C(F)(C(F)(F)F)C(F)(F)F)ccc1NC(=O)c1ccc(Cl)c(Cl)c1C(=O)NC(C)COC(=O)NCc1ccccc1 (centres unmarked) [compound 229]
[1]
  insecticidal activity (mortality rating): B or higher

## CCNC(=O)OCC(C)NC(=O)c1c(C(=O)Nc2ccc(OC(F)(F)F)cc2C)ccc(Cl)c1Cl (centres unmarked) [compound 230]
[1]
  insecticidal activity (mortality rating): B or higher

## CCNC(=O)OCC(C)NC(=O)c1c(C(=O)Nc2ccc(C(F)(C(F)(F)F)C(F)(F)F)cc2C)cccc1[N+](=O)[O-] (centres unmarked) [compound 235]
[1]
  insecticidal activity (mortality rating): B or higher

## Cc1cc(OC(F)(F)F)ccc1NC(=O)c1cccc([N+](=O)[O-])c1C(=O)NC(C)COC(=O)NCc1ccccc1 (centres unmarked) [compound 236]
[1]
  insecticidal activity (mortality rating): B or higher

## CCNC(=O)OCC(C)NC(=O)c1cc(C(F)(F)F)ccc1C(=O)Nc1ccc(C(F)(C(F)(F)F)C(F)(F)F)cc1C (centres unmarked) [compound 243]
[1]
  insecticidal activity (mortality rating): B or higher

## CCNC(=O)OCC(C)NC(=O)c1c(C(=O)Nc2ccc(C(F)(C(F)(F)F)C(F)(F)F)cc2C)ccc2ccccc12 (centres unmarked) [compound 259]
[1]
  insecticidal activity (mortality rating): B or higher

## CCNC(=O)OCC(C)NC(=O)c1c(C(=O)Nc2ccc(OC(F)(F)F)cc2C)ccc2ccccc12 (centres unmarked) [compound 260]
[1]
  insecticidal activity (mortality rating): B or higher

## CCNC(=O)OCC(C)NC(=O)c1c(I)cccc1C(=O)Nc1ccc(C(F)(C(F)(F)F)C(F)(F)F)cc1OC (centres unmarked) [compound 275]
[1]
  insecticidal activity (mortality rating): B or higher

## CCNC(=O)OCC(C)NC(=O)c1c(I)cccc1C(=O)Nc1ccc(OC(F)(F)C(F)Cl)cc1C (centres unmarked) [compound 286]
[1]
  insecticidal activity (mortality rating): B or higher

## CCNC(=O)OCC(C)NC(=O)c1c(I)cccc1C(=O)Nc1ccc(OC(F)(F)C(F)C(F)(F)F)cc1C (centres unmarked) [compound 287]
[1]
  insecticidal activity (mortality rating): B or higher

## CC(COC(=O)NCc1ccccc1)NC(=O)c1ccccc1C(=O)Nc1ccc2c(c1)OC(F)(F)O2 (centres unmarked) [compound 293]
[1]
  insecticidal activity (mortality rating): B or higher

## CCNC(=O)OCC(C)NC(=O)c1ccccc1C(=O)Nc1ccc2c(c1)OC(F)(F)C(F)(F)O2 (centres unmarked) [compound 297]
[1]
  insecticidal activity (mortality rating): B or higher

## Cc1cc(C(F)(C(F)(F)F)C(F)(F)F)ccc1NC(=O)c1ccccc1C(=O)N(C)CCNC(=O)c1ccccc1 [compound 311]
[1]
  insecticidal activity (mortality rating): B or higher

## CCNC(=S)NCC(C)NC(=O)c1ccccc1C(=O)Nc1ccc(C(F)(C(F)(F)F)C(F)(F)F)cc1C (centres unmarked) [compound 312]
[1]
  insecticidal activity (mortality rating): B or higher
